Test results reported in the supplement of paper PMC4604168 (melanoma cell lines).
Some of the results follow. Many values rest on one well or one pass, so single values are uncertain.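 Imaging used 1,536-well plates; nuclei positive for cleaved PARP by antibody were divided by total DNA-stained nuclei to yield the apoptosis fraction. Doses for screening kept most cells viable, and cell lines differ markedly in resting and induced cleaved-PARP levels.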

system: A2058; test: cleaved PARP positive nuclei fraction relative to DMSO control; melanoma cells; higher = more apoptosis; conditions: library dose: low library concentration; 72 h

Q: With `C[C@@H](Oc1cc(-c2cnn(C3CCNCC3)c2)cnc1N)c1c(Cl)ccc(F)c1Cl` [Crizotinib] + O=C(O)c1ccc(-c2c[nH]c3ncc(-c4ccccc4)cc23)cc1C1CCCC1 [GSK650394] (first compound 0.2 µM, partner dose 0.16 µM) as the molecule, how does the “cleaved PARP positive nuclei fraction” value read?
A: 18.8%

Q: For `CS(=O)(=O)CCNCc1ccc(-c2ccc3ncnc(Nc4ccc(OCc5cccc(F)c5)c(Cl)c4)c3c2)o1` [lapatinib] + NC(=O)Nc1cc(-c2cccc(F)c2)sc1C(=O)N[C@H]1CCCNC1 [AZD7762] (first compound 0.8 µM, partner dose 0.02 µM), which “cleaved PARP positive nuclei fraction” value is on record?
A: 159%

Q: How did the “cleaved PARP positive nuclei fraction” value turn out when `CNC(=O)c1cc(Oc2ccc(NC(=O)Nc3ccc(Cl)c(C(F)(F)F)c3)cc2)ccn1` [sorafenib] + NC(=O)Nc1cc(-c2cccc(F)c2)sc1C(=O)N[C@H]1CCCNC1 [AZD7762] (first compound 0.4 µM, partner dose 0.02 µM) was run?
A: 88.6%

Q: How did the “cleaved PARP positive nuclei fraction” value turn out when `CN1CCN(c2ccc3nc(-c4c(N)c5c(F)cccc5[nH]c4=O)[nH]c3c2)CC1` [Dovitinib] + NCC(=O)Nc1ccc(-n2nc(C(F)(F)F)cc2-c2ccc3c(ccc4ccccc43)c2)cc1 [OSU03012] (first compound 0.1 µM, partner dose 1 µM) was run?
A: 62.6%

Q: How did the “cleaved PARP positive nuclei fraction” value turn out when `C=C(c1ccc(C(=O)O)cc1)c1cc2c(cc1C)C(C)(C)CCC2(C)C` [Bexarotene] + NC(=O)Nc1cc(-c2cccc(F)c2)sc1C(=O)N[C@H]1CCCNC1 [AZD7762] (first compound 2 µM, partner dose 0.02 µM) was run?
A: 90%

Q: For `Cn1c(=O)n(-c2ccc(C(C)(C)C#N)cc2)c2c3cc(-c4cnc5ccccc5c4)ccc3ncc21` + Cn1cncc1[C@@](N)(c1ccc(Cl)cc1)c1ccc2c(c1)c(-c1cccc(Cl)c1)cc(=O)n2C [tipifarnib] (first compound 0.004 µM, partner dose 0.01 µM), which “cleaved PARP positive nuclei fraction” value is on record?
A: 198%

Q: For `C[C@@H](Oc1cc(-c2cnn(C3CCNCC3)c2)cnc1N)c1c(Cl)ccc(F)c1Cl` [Crizotinib] + CN(NC(=O)CC(=O)NN(C)C(=S)c1ccccc1)C(=S)c1ccccc1 [STA4783] (first compound 0.2 µM, partner dose 0.006 µM), which “cleaved PARP positive nuclei fraction” value is on record?
A: 226%

Q: `CC(C)C[C@H](NC(=O)[C@H](Cc1ccccc1)NC(=O)c1cnccn1)B(O)O` [Bortezomib] + COc1cc2c(Oc3ccc4[nH]c(C)cc4c3F)ncnc2cc1OCCCN1CCCC1 [cediranib] (first compound 0.001 µM, partner dose 0.4 µM) was tested. Which “cleaved PARP positive nuclei fraction” value did it give?
A: 65.4%

Q: `Cc1cc(Nc2cc(N3CCN(C)CC3)nc(/C=C/c3ccccc3)n2)n[nH]1` + Cc1cc(N2CCOCC2)cc2[nH]c(-c3c(NC[C@@H](O)c4cccc(Cl)c4)cc[nH]c3=O)nc12 [BMS536924] (first compound 0.04 µM, partner dose 0.2 µM) was tested. Which “cleaved PARP positive nuclei fraction” value did it give?
A: 95.9%

Q: How did the “cleaved PARP positive nuclei fraction” value turn out when `C[C@@H](Oc1cc(-c2cnn(C3CCNCC3)c2)cnc1N)c1c(Cl)ccc(F)c1Cl` [Crizotinib] + CC1(C)NC(=O)N(c2ccc([N+](=O)[O-])c(C(F)(F)F)c2)C1=O [nilutamide] (first compound 0.2 µM, partner dose 1 µM) was run?
A: 113%

Q: Which “cleaved PARP positive nuclei fraction” value does the source give for `Cn1c(=O)n(-c2ccc(C(C)(C)C#N)cc2)c2c3cc(-c4cnc5ccccc5c4)ccc3ncc21` + NC(=O)Nc1cc(-c2cccc(F)c2)sc1C(=O)N[C@H]1CCCNC1 [AZD7762] (first compound 0.004 µM, partner dose 0.02 µM) here?
A: 27.1%

Q: With `CC(C)C[C@H](NC(=O)[C@H](Cc1ccccc1)NC(=O)c1cnccn1)B(O)O` [Bortezomib] + O=C(O)c1ccc(-c2c[nH]c3ncc(-c4ccccc4)cc23)cc1C1CCCC1 [GSK650394] (first compound 0.001 µM, partner dose 0.16 µM) as the molecule, how does the “cleaved PARP positive nuclei fraction” value read?
A: 56.1%

Q: `C[C@@H](Oc1cc(-c2cnn(C3CCNCC3)c2)cnc1N)c1c(Cl)ccc(F)c1Cl` [Crizotinib] + C[C@@H]1CCN(C(=O)CC#N)C[C@@H]1N(C)c1ncnc2[nH]ccc12 [CP690550] (first compound 0.2 µM, partner dose 1 µM) was tested. Which “cleaved PARP positive nuclei fraction” value did it give?
A: 52.3%

Q: How did the “cleaved PARP positive nuclei fraction” value turn out when `CC(C)C[C@H](NC(=O)[C@H](Cc1ccccc1)NC(=O)c1cnccn1)B(O)O` [Bortezomib] + Cc1cc(N2CCOCC2)cc2[nH]c(-c3c(NC[C@@H](O)c4cccc(Cl)c4)cc[nH]c3=O)nc12 [BMS536924] (first compound 0.001 µM, partner dose 0.2 µM) was run?
A: 153%

Q: With `Nc1ccn([C@@H]2O[C@H](CO)[C@@H](O)C2(F)F)c(=O)n1` [gemcitabine] + CC(C)(C)c1cnc(CSc2cnc(NC(=O)C3CCNCC3)s2)o1 [SNS-032] (first compound 0.0004 µM, partner dose 0.01 µM) as the molecule, how does the “cleaved PARP positive nuclei fraction” value read?
A: 113%

Q: With `CCCS(=O)(=O)Nc1ccc(F)c(C(=O)c2c[nH]c3ncc(Cl)cc23)c1F` + C=CCn1c(=O)c2cnc(Nc3ccc(N4CCN(C)CC4)cc3)nc2n1-c1cccc(C(C)(C)O)n1 [MK1775] (first compound 0.08 µM, partner dose 0.02 µM) as the molecule, how does the “cleaved PARP positive nuclei fraction” value read?
A: 37.1%

Q: For `Nc1ccn([C@@H]2O[C@H](CO)[C@@H](O)C2(F)F)c(=O)n1` [gemcitabine] + CC1(C)NC(=O)N(c2ccc([N+](=O)[O-])c(C(F)(F)F)c2)C1=O [nilutamide] (first compound 0.0004 µM, partner dose 1 µM), which “cleaved PARP positive nuclei fraction” value is on record?
A: 75.2%

Q: `CC(C)C[C@H](NC(=O)[C@H](Cc1ccccc1)NC(=O)c1cnccn1)B(O)O` [Bortezomib] + Cc1ccc(NC(=O)c2cccc(N(C)C)c2)cc1NC(=O)c1ccc(O)cc1 [ZM336372] (first compound 0.001 µM, partner dose 2 µM) was tested. Which “cleaved PARP positive nuclei fraction” value did it give?
A: 189%

Q: How did the “cleaved PARP positive nuclei fraction” value turn out when `CCCS(=O)(=O)Nc1ccc(F)c(C(=O)c2c[nH]c3ncc(Cl)cc23)c1F` + CN(NC(=O)CC(=O)NN(C)C(=S)c1ccccc1)C(=S)c1ccccc1 [STA4783] (first compound 0.08 µM, partner dose 0.006 µM) was run?
A: 110%

Q: `O=C(O)[C@@H]1[O][Sb](=[O])([O][Sb]2(=[O])[O][C@H]([C@H](O)CO)[C@H](O)[C@H](C(=O)O)[O]2)[O][C@H]([C@H](O)CO)[C@@H]1O` (some centres not stated) [stibogluconate] + C[C@@H]1CCN(C(=O)CC#N)C[C@@H]1N(C)c1ncnc2[nH]ccc12 [CP690550] (first compound 2 µM, partner dose 1 µM) was tested. Which “cleaved PARP positive nuclei fraction” value did it give?
A: 70.6%

Q: Which “cleaved PARP positive nuclei fraction” value does the source give for `C=C(c1ccc(C(=O)O)cc1)c1cc2c(cc1C)C(C)(C)CCC2(C)C` [Bexarotene] + Cc1ccc(NC(=O)c2cccc(N(C)C)c2)cc1NC(=O)c1ccc(O)cc1 [ZM336372] (first compound 2 µM, partner dose 2 µM) here?
A: 86.2%

Q: For `Cc1cc(Nc2cc(N3CCN(C)CC3)nc(/C=C/c3ccccc3)n2)n[nH]1` + CO[C@@H]1[C@H](N(C)C(=O)c2ccccc2)C[C@H]2O[C@]1(C)n1c3ccccc3c3c4c(c5c6ccccc6n2c5c31)C(=O)NC4 [Midostaurin] (first compound 0.04 µM, partner dose 0.08 µM), which “cleaved PARP positive nuclei fraction” value is on record?
A: 94.7%
